Experimental data as given in PubChem BioAssay AID2685 (National Center for Advancing Translational Sciences (NCATS), 2010).
This is one part of the list. These are further read-outs of the screen, such as a control signal, another cell line or another target. No call is given for them. The list favours compounds with an active or inconclusive main result. Words in brackets tell the shape of the fitted curve; partial curves, single points and poor fits give uncertain potencies.

Assay: qHTS Assay for Lipid Storage Modulators in Drosophila S3 Cells;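 for cell number change: cells counted by Cell Tracker Red CMTPX staining in the red channel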
Conditions: BODIPY lipid droplet fluorescence, 18-24 h; for cell number change: measured here: cell count max response, cells fed with added oleic acid
In short: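 Laser-scanning cytometry quantifies lipid droplet accumulation (500–530 nm total intensity; droplet/cell object ratio) in oleic acid-fed (400 uM added) Drosophila S3 cells treated with a concentration series. 20 uM Triacsin C defined 100% inhibition.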

[1] = measured here: lipid fluorescence (Fed channel) AC50, cells fed with added oleic acid
[2] = measured here: cell number channel AC50, cells fed with added oleic acid

SMILES | cell number change [%] | AC50 [1] | AC50 [2]
CCN1CCN(c2nnc(-c3ccc(F)cc3)c3ccccc23)CC1 | 6.35 |  | 
COc1ccc(NS(=O)(=O)c2cc(NC(=O)c3cnccn3)ccc2N2CCCC2)cc1 | 12.3 | 3.66 µM [rising, single point] | 
O=C(Cn1c2ccccc2c2nc3n(c(=O)c21)CCCS3)Nc1ccccc1 | -18.8 |  | 
CCn1c(=O)cc(NC2=NCC(C)CN2c2cccc(Cl)c2)n(C)c1=O (stereo not drawn) | -0.0858 | 8.2 µM [rising, partial curve] | 
Cc1ccc2nc(SCC(=O)c3ccccc3)nc(=O)n2c1 | -15.1 | 2.31 µM [falling, partial curve] | 2.59 µM [falling, partial curve]
O=C(CNS(=O)(=O)c1ccccc1)OCC(=O)c1c[nH]c2ccccc12 | -7.94 | 4.11 µM [rising, full curve, poor fit] | 
O=C(COC(=O)c1cc([N+](=O)[O-])ccc1Cl)NCCc1ccccc1 | -24.5 |  | 
CC1(C)CN=c2s/c(=C\c3ccc(Cl)cc3)c(=O)n2C1 | 33.9 |  | 23.1 µM [rising, single point]
COc1ccc(CN(C)C(=O)C23CC4CC(CC(C4)C2)C3)c(OC)c1 | -22.4 | 35.5 µM [falling, single point] | 0.82 µM [falling, full curve, poor fit]
CC1(C)C([N+](=O)[O-])C(c2ccc(O)cc2)NC(c2ccc(O)cc2)C1[N+](=O)[O-] (stereo not drawn) | 23.4 | 1.84 µM [rising, single point] | 
COc1ccc(N2CCN(C(=O)Cc3ccc(Cl)cc3)CC2)cc1 | -10.6 | 29.1 µM [falling, single point] | 
COc1ccc(CNC(=O)c2cc(C3CC3)on2)cc1 |  | 3.66 µM [rising, partial curve, poor fit] | 
Cc1ccc(S(=O)(=O)c2c[nH]c3ccc(C)cc3c2=O)cc1 | 20.7 | 0.82 µM [rising, full curve, poor fit] | 
O=C(COC(=O)c1cc(S(=O)(=O)N2CCOCC2)ccc1Cl)Nc1ccc2c(c1)OCO2 | 30.9 | 2.06 µM [rising, partial curve, poor fit] | 0.291 µM [rising, partial curve, poor fit]
CCCOc1ncnc2c1[nH]c1ccc(C)cc12 | -45.6 | 18.4 µM [falling, single point] | 23.1 µM [falling, single point]
Cc1ccc(S(=O)(=O)c2nc(-c3ccc(F)cc3)oc2N2CCOCC2)cc1 | 12.9 | 0.366 µM [rising, partial curve, poor fit] | 
COc1cccc(C(c2ccccc2)N2C3CCC2CN(S(=O)(=O)c2ccc(F)cc2)CC3)c1 (stereo not drawn) | -13.5 |  | 
O=C(Nc1ccc(C2=NCCN2)cc1)c1ccc(C(=O)Nc2ccc(C3=NCCN3)cc2)c([N+](=O)[O-])c1 | 1.02 | 0.259 µM [rising, full curve] | 

SMILES | cell number change [%] | AC50 [1] | AC50 [2]
O=C(NC(=S)N1CCN(c2ccc([N+](=O)[O-])cc2)CC1)c1ccc(F)cc1 | -31.9 |  | 29.1 µM [falling, single point]
CCOC(=O)N1CCC(=NNc2nc(C)cc(=O)[nH]2)CC1 | -27 | 16.4 µM [falling, single point] | 
COc1ccc(NS(=O)(=O)c2cccc(C(=O)NCC3(N4CCCCC4)CCCCC3)c2)cc1 | 4.64 | 29.1 µM [falling, single point] | 
O=C(CNS(=O)(=O)c1ccc(Br)s1)N1CCCC1 | -190 | 23.1 µM [falling, single point] | 29.1 µM [falling, single point]
CCC(C)c1ccccc1NC(=S)Nc1cccnc1 (stereo not drawn) | 21.4 |  | 
NS(=O)(=O)c1ccc(CCNC(=O)c2cc(-c3cccs3)nc3ccccc23)cc1 | 38.8 | 29.1 µM [rising, single point] | 29.1 µM [rising, single point]
COc1ccccc1CN1CCNC(=O)C1CC(=O)NCc1cn(C)nc1C (stereo not drawn) | -32.9 | 29.1 µM [falling, partial curve, poor fit] | 
CCC(C)c1ccc(O)c(/C=N/O)c1 (stereo not drawn) | -39.1 | 14.6 µM [falling, partial curve] | 4.11 µM [falling, full curve]
O=S(=O)(Nc1ccc(Br)cn1)c1ccc(Cl)s1 | -10.5 | 6.51 µM [rising, single point] | 
COc1cccc(N2CCN(C(=O)CN(c3cc(C)cc(C)c3)S(=O)(=O)c3c(C)noc3C)CC2)c1 | 15 | 6.51 µM [rising, single point] | 
Cc1cc(C)n2nc(SCC(=O)N(C)C)nc2n1 | -23.1 | 0.82 µM [falling, partial curve, poor fit] | 1.84 µM [falling, full curve, poor fit]
O=C(CCSc1nnc(-c2ccccc2)o1)N1CCOCC1 |  | 3.66 µM [rising, full curve] | 6.51 µM [rising, partial curve, poor fit]
c1ccc(Cc2nn3c(C4COc5ccccc5O4)nnc3s2)cc1 (stereo not drawn) |  | 0.82 µM [rising, single point] | 
Cc1ccc(C)c(OCc2cc(C(=O)NC3CCOC(C)(C)C3)no2)c1 (stereo not drawn) | -2.48 | 11.6 µM [rising, partial curve] | 
COc1ccc(NC(=O)CCc2nnc3ccc(NCc4ccco4)nn23)cc1 | -22.7 |  | 
COc1ccc(C(=O)Nc2ccccc2C(=O)N/N=C/c2ccc(O)c(OC)c2)cc1 | -5.8 | 2.06 µM [falling, partial curve] | 1.84 µM [falling, partial curve]
COc1ccc(C(=O)OCC(=O)NCC2CCCO2)cc1S(=O)(=O)N1CCCc2ccccc21 (stereo not drawn) | -0.656 | 0.0116 µM [falling, full curve] | 
CN(C)C(=O)c1cc([N+](=O)[O-])cc([N+](=O)[O-])c1N(C)C | -2.44 | 0.164 µM [rising, partial curve, poor fit] | 

Some of the entries so far, with tabs:
SMILES	cell number change [%]	AC50 [1]	AC50 [2]
O=C(COC(=O)c1cc(S(=O)(=O)N2CCOCC2)ccc1Cl)Nc1ccc2c(c1)OCO2	30.9	2.06 µM [rising, partial curve, poor fit]	0.291 µM [rising, partial curve, poor fit]
CCCOc1ncnc2c1[nH]c1ccc(C)cc12	-45.6	18.4 µM [falling, single point]	23.1 µM [falling, single point]
Cc1ccc(S(=O)(=O)c2nc(-c3ccc(F)cc3)oc2N2CCOCC2)cc1	12.9	0.366 µM [rising, partial curve, poor fit]	
COc1cccc(C(c2ccccc2)N2C3CCC2CN(S(=O)(=O)c2ccc(F)cc2)CC3)c1 (stereo not drawn)	-13.5		
O=C(Nc1ccc(C2=NCCN2)cc1)c1ccc(C(=O)Nc2ccc(C3=NCCN3)cc2)c([N+](=O)[O-])c1	1.02	0.259 µM [rising, full curve]	
O=C(NC(=S)N1CCN(c2ccc([N+](=O)[O-])cc2)CC1)c1ccc(F)cc1	-31.9		29.1 µM [falling, single point]
CCOC(=O)N1CCC(=NNc2nc(C)cc(=O)[nH]2)CC1	-27	16.4 µM [falling, single point]	
COc1ccc(NS(=O)(=O)c2cccc(C(=O)NCC3(N4CCCCC4)CCCCC3)c2)cc1	4.64	29.1 µM [falling, single point]	
O=C(CNS(=O)(=O)c1ccc(Br)s1)N1CCCC1	-190	23.1 µM [falling, single point]	29.1 µM [falling, single point]
CCC(C)c1ccccc1NC(=S)Nc1cccnc1 (stereo not drawn)	21.4		
NS(=O)(=O)c1ccc(CCNC(=O)c2cc(-c3cccs3)nc3ccccc23)cc1	38.8	29.1 µM [rising, single point]	29.1 µM [rising, single point]
